Data on one substance can be found in PMC11965403.

Protein sequences, listed by entry. Tags and fused reporters are not part of them.
UniProt Q86U44: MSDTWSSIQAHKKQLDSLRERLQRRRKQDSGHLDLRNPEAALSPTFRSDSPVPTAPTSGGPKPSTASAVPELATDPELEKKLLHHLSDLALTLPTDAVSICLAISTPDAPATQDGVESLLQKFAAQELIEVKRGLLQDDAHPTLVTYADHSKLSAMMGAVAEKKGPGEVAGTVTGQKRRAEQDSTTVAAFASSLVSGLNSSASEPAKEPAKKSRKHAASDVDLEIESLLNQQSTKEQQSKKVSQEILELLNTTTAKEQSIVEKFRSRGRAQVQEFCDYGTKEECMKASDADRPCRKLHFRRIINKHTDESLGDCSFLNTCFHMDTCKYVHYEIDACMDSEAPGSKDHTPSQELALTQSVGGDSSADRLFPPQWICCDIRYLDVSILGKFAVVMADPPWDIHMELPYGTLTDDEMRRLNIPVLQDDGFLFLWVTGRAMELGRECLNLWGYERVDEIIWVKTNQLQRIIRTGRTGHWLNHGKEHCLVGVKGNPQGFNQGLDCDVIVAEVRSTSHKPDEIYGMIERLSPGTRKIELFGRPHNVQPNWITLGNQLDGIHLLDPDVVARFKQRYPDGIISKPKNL
UniProt P19474: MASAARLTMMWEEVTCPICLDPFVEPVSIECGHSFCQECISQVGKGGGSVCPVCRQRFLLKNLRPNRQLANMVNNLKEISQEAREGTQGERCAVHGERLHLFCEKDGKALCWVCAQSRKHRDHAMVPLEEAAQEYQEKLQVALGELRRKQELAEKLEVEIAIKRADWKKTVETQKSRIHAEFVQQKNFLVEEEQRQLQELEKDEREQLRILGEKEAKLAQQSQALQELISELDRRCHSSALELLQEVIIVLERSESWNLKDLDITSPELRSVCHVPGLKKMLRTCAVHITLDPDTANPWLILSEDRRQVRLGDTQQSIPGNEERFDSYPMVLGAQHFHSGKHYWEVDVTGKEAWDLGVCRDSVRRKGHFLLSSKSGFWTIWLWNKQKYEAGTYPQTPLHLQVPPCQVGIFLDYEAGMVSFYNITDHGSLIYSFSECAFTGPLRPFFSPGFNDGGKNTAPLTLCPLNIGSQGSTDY

Results are given in words; binding and its absence hold for the method and conditions named. In cells and extracts the contact can be indirect. Here binding means that the protein was enriched with, or labelled near, the bait; the list need not be complete.

For the test, the target named is endogenous METTL3 (human (endogenous in pancreatic cancer cells)) (UniProt Q86U44). Kind of test: affinity purification with mass spectrometry; METTL3-associated protein complexes isolated from pancreatic cancer cells by co-IP, analysed by LC-MS/MS; three independent analyses.

On to “endogenous TRIM21 (from UniProt P19474 1-475)”, for which the binding entry was “binds”.
